Results reported in the supplement of paper PMC11732987, “Enantioselective OTUD7B fragment discovery through chemoproteomics screening and high-throughput optimisation” (Communications Chemistry, 2025).
The list shows a part of the results. The data scatter; read single values as rough.

Protein sequences, listed by entry. Tags and fused reporters are not part of them. Lines headed by an entry give the natural chain unless they say otherwise; changes in a name come on top. Residues count along the entry.
UniProt Q5VVJ2: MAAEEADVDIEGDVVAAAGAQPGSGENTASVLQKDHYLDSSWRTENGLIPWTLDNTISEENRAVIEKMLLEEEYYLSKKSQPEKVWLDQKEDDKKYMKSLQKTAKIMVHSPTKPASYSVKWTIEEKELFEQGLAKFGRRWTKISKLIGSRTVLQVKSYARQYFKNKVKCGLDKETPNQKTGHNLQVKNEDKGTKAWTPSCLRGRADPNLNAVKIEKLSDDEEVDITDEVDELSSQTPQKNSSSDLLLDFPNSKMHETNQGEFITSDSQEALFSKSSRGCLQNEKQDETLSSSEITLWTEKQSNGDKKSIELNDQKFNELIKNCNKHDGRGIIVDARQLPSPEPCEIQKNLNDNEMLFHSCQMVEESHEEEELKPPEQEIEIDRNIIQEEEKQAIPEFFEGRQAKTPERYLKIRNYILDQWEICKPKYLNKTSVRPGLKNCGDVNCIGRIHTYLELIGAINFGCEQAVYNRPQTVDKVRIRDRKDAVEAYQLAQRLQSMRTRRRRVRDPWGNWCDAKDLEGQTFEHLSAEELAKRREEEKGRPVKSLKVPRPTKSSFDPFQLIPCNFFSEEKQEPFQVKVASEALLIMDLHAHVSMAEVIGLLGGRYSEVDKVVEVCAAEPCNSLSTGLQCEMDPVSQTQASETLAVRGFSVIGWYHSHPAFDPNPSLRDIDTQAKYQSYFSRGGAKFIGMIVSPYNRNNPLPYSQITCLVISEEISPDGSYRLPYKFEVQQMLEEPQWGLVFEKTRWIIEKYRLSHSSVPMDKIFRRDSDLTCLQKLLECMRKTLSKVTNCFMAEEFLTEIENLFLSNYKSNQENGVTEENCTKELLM
UniProt Q96H55, whole entry, looked up: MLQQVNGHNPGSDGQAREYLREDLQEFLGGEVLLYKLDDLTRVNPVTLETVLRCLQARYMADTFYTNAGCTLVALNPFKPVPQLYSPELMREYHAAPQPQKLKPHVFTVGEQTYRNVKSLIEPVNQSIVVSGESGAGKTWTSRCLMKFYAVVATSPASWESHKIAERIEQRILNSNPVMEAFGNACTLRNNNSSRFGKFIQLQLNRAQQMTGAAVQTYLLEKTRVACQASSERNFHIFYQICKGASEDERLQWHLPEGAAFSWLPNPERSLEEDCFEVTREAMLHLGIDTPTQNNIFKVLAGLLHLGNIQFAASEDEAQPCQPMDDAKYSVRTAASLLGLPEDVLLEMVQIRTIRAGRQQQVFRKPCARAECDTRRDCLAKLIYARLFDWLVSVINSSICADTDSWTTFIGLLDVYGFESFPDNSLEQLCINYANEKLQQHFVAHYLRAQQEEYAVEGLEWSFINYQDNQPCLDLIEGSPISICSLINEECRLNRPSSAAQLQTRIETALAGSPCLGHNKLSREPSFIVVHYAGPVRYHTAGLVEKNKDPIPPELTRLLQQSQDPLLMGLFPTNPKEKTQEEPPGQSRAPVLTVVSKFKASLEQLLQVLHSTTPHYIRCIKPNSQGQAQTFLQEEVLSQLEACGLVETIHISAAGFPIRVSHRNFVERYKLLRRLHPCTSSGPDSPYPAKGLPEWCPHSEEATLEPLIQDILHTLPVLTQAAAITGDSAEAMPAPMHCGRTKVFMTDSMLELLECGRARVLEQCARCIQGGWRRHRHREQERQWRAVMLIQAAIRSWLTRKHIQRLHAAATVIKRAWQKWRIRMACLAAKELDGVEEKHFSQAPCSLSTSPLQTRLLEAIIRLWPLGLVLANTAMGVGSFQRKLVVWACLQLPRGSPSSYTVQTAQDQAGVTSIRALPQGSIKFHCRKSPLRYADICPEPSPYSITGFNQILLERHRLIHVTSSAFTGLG
UniProt O43347, 1-21: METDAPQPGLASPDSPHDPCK
UniProt O75592: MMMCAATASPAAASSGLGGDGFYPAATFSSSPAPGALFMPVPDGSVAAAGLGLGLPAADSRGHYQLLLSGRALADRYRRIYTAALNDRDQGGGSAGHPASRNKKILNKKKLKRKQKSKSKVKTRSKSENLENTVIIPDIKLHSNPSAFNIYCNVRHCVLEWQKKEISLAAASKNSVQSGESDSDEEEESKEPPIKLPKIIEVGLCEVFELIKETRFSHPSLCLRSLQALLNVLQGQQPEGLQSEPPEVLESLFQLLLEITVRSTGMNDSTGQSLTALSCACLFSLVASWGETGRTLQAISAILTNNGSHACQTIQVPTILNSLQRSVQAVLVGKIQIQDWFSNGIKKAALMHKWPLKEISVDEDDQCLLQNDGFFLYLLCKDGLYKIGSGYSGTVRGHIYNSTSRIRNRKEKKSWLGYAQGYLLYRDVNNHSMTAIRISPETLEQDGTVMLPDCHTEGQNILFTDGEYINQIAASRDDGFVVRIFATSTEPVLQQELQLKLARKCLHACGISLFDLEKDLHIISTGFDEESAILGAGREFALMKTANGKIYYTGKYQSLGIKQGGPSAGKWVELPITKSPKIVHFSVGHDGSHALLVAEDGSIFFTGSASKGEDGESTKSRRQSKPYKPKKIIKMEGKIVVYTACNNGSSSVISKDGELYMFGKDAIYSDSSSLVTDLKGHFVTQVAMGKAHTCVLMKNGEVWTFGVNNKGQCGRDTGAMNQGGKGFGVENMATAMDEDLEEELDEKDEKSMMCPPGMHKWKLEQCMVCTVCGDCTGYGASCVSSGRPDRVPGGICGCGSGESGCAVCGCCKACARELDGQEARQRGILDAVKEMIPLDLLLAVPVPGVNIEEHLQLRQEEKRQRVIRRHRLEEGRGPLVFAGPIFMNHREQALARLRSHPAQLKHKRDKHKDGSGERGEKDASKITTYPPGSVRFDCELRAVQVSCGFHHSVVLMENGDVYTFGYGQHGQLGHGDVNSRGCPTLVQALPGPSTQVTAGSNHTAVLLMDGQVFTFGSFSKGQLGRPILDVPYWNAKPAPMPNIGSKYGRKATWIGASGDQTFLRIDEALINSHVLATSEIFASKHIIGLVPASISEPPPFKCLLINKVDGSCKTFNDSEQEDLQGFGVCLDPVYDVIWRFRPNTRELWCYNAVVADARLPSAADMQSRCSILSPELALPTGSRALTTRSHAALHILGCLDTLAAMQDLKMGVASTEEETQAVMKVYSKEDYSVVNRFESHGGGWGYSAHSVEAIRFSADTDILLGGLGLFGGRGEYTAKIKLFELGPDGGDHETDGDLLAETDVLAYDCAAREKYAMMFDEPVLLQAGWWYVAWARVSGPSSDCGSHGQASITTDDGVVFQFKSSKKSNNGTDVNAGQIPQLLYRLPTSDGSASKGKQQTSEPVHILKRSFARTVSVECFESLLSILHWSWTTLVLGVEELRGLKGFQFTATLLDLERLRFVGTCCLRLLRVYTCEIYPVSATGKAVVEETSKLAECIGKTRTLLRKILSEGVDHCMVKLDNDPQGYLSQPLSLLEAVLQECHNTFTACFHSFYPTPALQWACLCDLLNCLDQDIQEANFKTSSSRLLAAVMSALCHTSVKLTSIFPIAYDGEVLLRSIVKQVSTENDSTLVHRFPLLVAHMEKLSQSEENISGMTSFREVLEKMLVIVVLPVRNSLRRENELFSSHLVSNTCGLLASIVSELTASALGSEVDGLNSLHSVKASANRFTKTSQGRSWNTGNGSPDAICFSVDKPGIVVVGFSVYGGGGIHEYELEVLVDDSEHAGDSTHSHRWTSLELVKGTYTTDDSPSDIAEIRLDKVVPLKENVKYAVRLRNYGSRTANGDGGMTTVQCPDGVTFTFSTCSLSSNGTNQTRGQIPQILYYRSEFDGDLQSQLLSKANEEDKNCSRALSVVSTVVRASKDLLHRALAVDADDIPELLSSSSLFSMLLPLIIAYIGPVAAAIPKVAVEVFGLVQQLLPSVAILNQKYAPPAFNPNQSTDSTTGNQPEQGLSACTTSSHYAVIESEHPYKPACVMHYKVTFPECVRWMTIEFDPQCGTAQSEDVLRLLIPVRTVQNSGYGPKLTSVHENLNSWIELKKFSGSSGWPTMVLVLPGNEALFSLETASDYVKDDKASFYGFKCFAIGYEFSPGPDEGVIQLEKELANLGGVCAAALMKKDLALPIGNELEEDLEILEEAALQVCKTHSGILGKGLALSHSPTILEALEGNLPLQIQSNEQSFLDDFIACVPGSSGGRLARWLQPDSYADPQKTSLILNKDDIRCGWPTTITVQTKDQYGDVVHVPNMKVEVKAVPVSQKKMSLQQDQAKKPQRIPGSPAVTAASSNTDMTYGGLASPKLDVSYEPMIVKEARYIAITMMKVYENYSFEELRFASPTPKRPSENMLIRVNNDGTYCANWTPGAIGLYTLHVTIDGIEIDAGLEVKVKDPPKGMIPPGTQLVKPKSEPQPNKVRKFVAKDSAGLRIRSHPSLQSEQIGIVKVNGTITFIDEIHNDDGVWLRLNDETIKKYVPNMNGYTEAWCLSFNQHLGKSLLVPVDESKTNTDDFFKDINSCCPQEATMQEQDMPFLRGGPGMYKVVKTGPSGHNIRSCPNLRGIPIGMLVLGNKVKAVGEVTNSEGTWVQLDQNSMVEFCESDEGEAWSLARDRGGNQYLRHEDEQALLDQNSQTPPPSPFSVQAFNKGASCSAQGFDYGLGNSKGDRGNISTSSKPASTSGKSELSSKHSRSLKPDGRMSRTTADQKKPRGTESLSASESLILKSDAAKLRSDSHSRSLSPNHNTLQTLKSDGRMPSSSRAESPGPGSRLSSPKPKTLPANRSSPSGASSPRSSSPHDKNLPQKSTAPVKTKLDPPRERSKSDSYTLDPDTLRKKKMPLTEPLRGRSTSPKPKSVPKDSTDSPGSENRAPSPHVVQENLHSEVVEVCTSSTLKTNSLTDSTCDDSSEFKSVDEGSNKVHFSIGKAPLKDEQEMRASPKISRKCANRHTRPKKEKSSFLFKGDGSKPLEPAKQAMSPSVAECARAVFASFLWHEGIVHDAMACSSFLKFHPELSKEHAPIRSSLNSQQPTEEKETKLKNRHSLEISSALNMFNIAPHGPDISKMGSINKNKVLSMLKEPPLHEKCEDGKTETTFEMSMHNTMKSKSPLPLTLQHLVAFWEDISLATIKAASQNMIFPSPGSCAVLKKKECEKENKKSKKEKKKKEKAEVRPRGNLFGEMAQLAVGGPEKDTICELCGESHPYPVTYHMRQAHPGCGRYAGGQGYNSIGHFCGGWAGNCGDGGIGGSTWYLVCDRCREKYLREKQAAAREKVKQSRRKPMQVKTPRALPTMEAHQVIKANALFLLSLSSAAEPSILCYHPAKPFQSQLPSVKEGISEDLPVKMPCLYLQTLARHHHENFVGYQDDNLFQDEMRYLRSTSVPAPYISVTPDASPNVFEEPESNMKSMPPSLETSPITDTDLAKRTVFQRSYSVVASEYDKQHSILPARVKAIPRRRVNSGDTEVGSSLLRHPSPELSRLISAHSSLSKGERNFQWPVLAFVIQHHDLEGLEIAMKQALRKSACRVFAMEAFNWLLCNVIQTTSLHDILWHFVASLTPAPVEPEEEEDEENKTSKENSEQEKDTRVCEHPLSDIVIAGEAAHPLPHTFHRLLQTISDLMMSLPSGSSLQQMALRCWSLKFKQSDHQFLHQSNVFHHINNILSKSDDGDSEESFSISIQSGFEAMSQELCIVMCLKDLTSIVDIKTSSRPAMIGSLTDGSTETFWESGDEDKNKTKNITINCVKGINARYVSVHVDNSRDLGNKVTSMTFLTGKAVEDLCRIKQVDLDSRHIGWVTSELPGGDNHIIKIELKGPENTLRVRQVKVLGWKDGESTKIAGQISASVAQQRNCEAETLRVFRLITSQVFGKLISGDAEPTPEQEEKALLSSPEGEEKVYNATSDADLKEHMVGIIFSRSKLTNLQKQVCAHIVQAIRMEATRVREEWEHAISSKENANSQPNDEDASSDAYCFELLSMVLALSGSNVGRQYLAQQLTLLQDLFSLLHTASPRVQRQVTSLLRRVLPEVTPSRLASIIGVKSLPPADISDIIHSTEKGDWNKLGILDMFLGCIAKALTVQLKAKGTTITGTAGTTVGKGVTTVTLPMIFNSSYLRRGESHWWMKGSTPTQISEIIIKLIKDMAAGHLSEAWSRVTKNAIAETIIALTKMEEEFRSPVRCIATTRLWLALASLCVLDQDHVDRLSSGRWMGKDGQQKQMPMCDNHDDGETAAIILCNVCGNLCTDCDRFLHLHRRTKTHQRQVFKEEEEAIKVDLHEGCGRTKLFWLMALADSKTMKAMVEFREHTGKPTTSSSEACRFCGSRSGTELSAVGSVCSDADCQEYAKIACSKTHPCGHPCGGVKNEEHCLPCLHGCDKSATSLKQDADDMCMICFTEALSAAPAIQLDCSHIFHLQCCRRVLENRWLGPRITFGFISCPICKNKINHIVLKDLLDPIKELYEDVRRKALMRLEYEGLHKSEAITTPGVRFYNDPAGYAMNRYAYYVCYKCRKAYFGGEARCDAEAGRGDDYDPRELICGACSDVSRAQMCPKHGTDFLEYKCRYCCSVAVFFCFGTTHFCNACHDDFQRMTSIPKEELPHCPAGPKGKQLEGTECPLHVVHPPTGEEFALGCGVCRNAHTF
UniProt Q2M296, 252-277: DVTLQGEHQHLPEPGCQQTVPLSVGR
UniProt Q86UW6, 1075-1097: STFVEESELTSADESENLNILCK
UniProt Q969V6, 310-330: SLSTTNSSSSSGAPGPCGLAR
UniProt Q9UHQ1, 249-271: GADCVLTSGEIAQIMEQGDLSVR

Key:
[1] = compound: ClCC(=O)N[C@@H]1CCCc2ccccc12; test: log2 mean competition ratio of IA-DTB cysteine labelling (DMSO/compound) (log2 ratio); higher = stronger cysteine engagement by compound; conditions: treatment time: 4 h, cell line lysate: HEK293T
Procedure: (§1)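 IA-DTB competitive cysteine chemoproteomics in HEK293T RIPA lysate. Lysates were treated with compound 29 or 30 at 50 or 200 µM for 4 h, then IA-DTB (500 µM, 1 h), trypsin-digested, NeutrAvidin-enriched and analysed by diaPASEF. Competition ratio = intensity DMSO / intensity compound (n=4 treated, n=64 DMSO); binding: mean log2 CR ≥ 1 and p ≤ 0.05 plus QC filters. Target is the cysteine site.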

[2] = compound: ClCC(=O)N[C@H]1CCCc2ccccc12; test: as above; conditions: treatment time: 4 h, cell line lysate: HEK293T
Procedure: as §1

Target | log2 mean competition ratio ([1]; 50 µM) | log2 mean competition ratio ([1]; 200 µM) | log2 mean competition ratio ([2]; 50 µM) | log2 mean competition ratio ([2]; 200 µM)
MTMR12 C67 (UniProt Q9C0I1) | 0.00864 | -0.495 | -0.421 | -0.77
MRPL17 C129 (UniProt Q9NRX2) | 0.0168 | -0.241 | -0.25 | -0.242
MTSS2 C276 (UniProt Q765P7) | 0.186 | 0.816 | -0.177 | 0.106
MRPL22 C70 (UniProt Q9NWU5) | 0.0806 | 0.383 | 0.0665 | 0.0598
MTREX C650 (UniProt P42285) | -0.129 | -0.292 | -0.299 | -0.135
MYSM1 C344 (UniProt Q5VVJ2) | -0.485 | -0.0988 | -0.0175 | 0.375
MTM1 C53 (UniProt Q13496) | -0.214 | -0.45 | -0.394 | -0.576
MYO19 C678 (UniProt Q96H55) | -0.0238 | 0.0125 | -0.308 | -0.112
MRPS18C C100 (UniProt Q9Y3D5) | 0.0363 | -0.376 | 0.309 | 0.0205
MSI1 C20 (UniProt O43347) | -0.386 | 0.071 | -0.018 | 0.145
MRPS7 C191 (UniProt Q9Y2R9) | -0.0941 | -0.0118 | -0.116 | -0.0278
MYO9B C2028 (UniProt Q13459) | -0.132 | -0.576 | 0.0468 | -0.43
MYO6 C668 (UniProt Q9UM54) | 0.324 | -0.409 | 0.705 | -0.379
MYH10 C823 (UniProt P35580) | -0.0377 | -0.346 | 0.596 | 0.0587
MTM1 C113 (UniProt Q13496) | -0.436 | 0.24 | -0.205 | 0.108
MRPS34 C93 (UniProt P82930) | -0.328 | 0.228 | 0.226 | 0.0045
NAMPT C397 | -0.1 | -0.0168 | -0.0442 | 0.141
MTMR1_(C170,C170,C176,C176) (UniProt Q13613) | -0.185 | 0.0974 | -0.696 | 0.13
MTMR3 C867 (UniProt Q13615) | -0.131 | -0.034 | 0.466 | 0.271
MRPL37 C153 (UniProt Q9BZE1) | 0.106 | 0.0206 | -0.178 | -0.325
NACC1 C464 (UniProt Q96RE7) | -0.323 | -0.373 | 0.127 | 0.219
MYCBP2 C2169 (UniProt O75592) | 0.371 | -0.299 | 0.0907 | 0.0202
NAP1L1 C88 | -0.0331 | -0.292 | 0.305 | -0.00589
MTO1 C104 (UniProt Q9Y2Z2) | 0.148 | 0.104 | 0.0121 | 0.1
MYO5A C1711 (UniProt Q9Y4I1) | 0.0267 | 0.405 | -0.109 | 0.484
MYO19 C764 (UniProt Q96H55) | -0.121 | -0.188 | 0.131 | -0.0435

Fetched one by one from the entries so far (seven):
Target | log2 mean competition ratio ([1]; 50 µM) | log2 mean competition ratio ([1]; 200 µM) | log2 mean competition ratio ([2]; 50 µM) | log2 mean competition ratio ([2]; 200 µM)
NAP1L1 C88 | -0.0331 | -0.292 | 0.305 | -0.00589
MYO5A C1711 (UniProt Q9Y4I1) | 0.0267 | 0.405 | -0.109 | 0.484
MTMR12 C67 (UniProt Q9C0I1) | 0.00864 | -0.495 | -0.421 | -0.77
MYSM1 C344 (UniProt Q5VVJ2) | -0.485 | -0.0988 | -0.0175 | 0.375
MRPS34 C93 (UniProt P82930) | -0.328 | 0.228 | 0.226 | 0.0045
MYO9B C2028 (UniProt Q13459) | -0.132 | -0.576 | 0.0468 | -0.43
MRPL37 C153 (UniProt Q9BZE1) | 0.106 | 0.0206 | -0.178 | -0.325

(continued)

Target | log2 mean competition ratio ([1]; 50 µM) | log2 mean competition ratio ([1]; 200 µM) | log2 mean competition ratio ([2]; 50 µM) | log2 mean competition ratio ([2]; 200 µM)
MSL1 C221 (UniProt Q68DK7) | 0.593 | 0.359 | 2.41 | 0.0917
MTPAP C82 (UniProt Q9NVV4) | -0.145 | -0.469 | 0.447 | -0.211
MYO19 C515 (UniProt Q96H55) | 0.45 | 0.247 | 0.766 | 0.166
MYO1E C519 (UniProt Q12965) | -0.245 | 0.244 | 0.291 | 0.418
MSH3 C626 (UniProt P20585) | 0.299 | 0.0966 | 0.501 | -0.102
MRPL44 C96 (UniProt Q9H9J2) | 0.123 | 0.0147 | -0.23 | 0.0162
MYCBP2 C2044 (UniProt O75592) | -0.2 | -0.126 | 0.306 | -0.185
MRPL18 C125 (UniProt Q9H0U6) | 0.0516 | -0.0962 | 0.252 | -0.0931
NAP1L3 C118 | -0.372 | 0.0126 | 0.0429 | 0.0894
MRPL28 C154 (UniProt Q13084) | 0.312 | 1.96 | 0.0308 | 1.79
MYO1B C103 (UniProt O43795) | -0.115 | -0.202 | -0.0554 | -0.305
MZT2B;MZT2A C80;(C80) | -0.0821 | 0.165 | 0.132 | 0.289
MTHFSD C267 (UniProt Q2M296) | -0.279 | -0.193 | -0.135 | -0.341
MTUS1 C492 (UniProt Q9ULD2) | 0.0811 | 0.0884 | 0.0541 | 0.0411
MYO1C C575 (UniProt O00159) | -0.0476 | 0.0301 | -0.0595 | 0.0915
MRPL33 C29 (UniProt O75394) | -0.0141 | -0.147 | 0.299 | -0.208
MYCBP2 C1516 (UniProt O75592) | -0.00444 | 0.162 | -0.0173 | 0.172
MYH10 C1238 (UniProt P35580) | -0.417 | -0.144 | -0.614 | -0.179
MRPL42 C45 (UniProt Q9Y6G3) | 0.0689 | 0.316 | 0.132 | 0.0846
MYO6 C610 (UniProt Q9UM54) | 0.0656 | 0.0435 | -0.0828 | -0.179
NAPA C103 (UniProt P54920) | 0.143 | -0.246 | 0.148 | -0.16
MRPS9 C233 (UniProt P82933) | -0.24 | -0.195 | 0.24 | -0.224
MRPS9 C330 (UniProt P82933) | -0.0727 | -0.201 | 0.0405 | -0.0315
NADSYN1 C428 (UniProt Q6IA69) |  |  | 0.00656 | 0.055
MRPL19 C248 (UniProt P49406) |  |  | 0.0178 | -0.0416
NADK2 C58 (UniProt Q4G0N4) | 0.00784 | 0.0695 | 0.182 | 0.105

Target | log2 mean competition ratio ([1]; 50 µM) | log2 mean competition ratio ([1]; 200 µM) | log2 mean competition ratio ([2]; 50 µM) | log2 mean competition ratio ([2]; 200 µM)
MRPL35 C150 (UniProt Q9NZE8) | 0.127 | 0.348 | 0.246 | 0.261
NAA10 C194 (UniProt P41227) | -0.135 | 0.0161 | -0.112 | -0.0141
MTA1 C229 (UniProt Q13330) |  |  | -0.111 | -0.0397
MRPL58 C150 (UniProt Q14197) |  |  |  | -0.00857
MUTYH C514 |  |  | 0.0142 | 0.251
MTR C400 (UniProt Q99707) |  |  | -0.0819 | -0.37
MRPL43 C91 (UniProt Q8N983) |  |  | 0.0615 | 0.297
MYSM1 C822 (UniProt Q5VVJ2) | -0.279 | -0.0638 | -0.241 | 0.0451
MRPL53 C21 (UniProt Q96EL3) | 0.133 | -0.0267 | 1.01 | 0.318
MTFR1 C89 (UniProt Q15390) |  |  | 0.272 | 0.147
MTARC1 C273 |  |  | -0.263 | -0.0364
MYO18A C250 (UniProt Q92614) | -0.0605 |  | 0.0404 | 0.353
MYO6 C587 (UniProt Q9UM54) |  |  | 0.489 | -0.0635
MYO1B C509 (UniProt O43795) |  |  | -0.118 | -0.0262
MRPL50 C52 (UniProt Q8N5N7) |  |  | -0.205 | -0.208
MYO1D C460 (UniProt O94832) |  |  | -0.455 | -0.221
MYH9 C1437 (UniProt P35579) | -0.147 | -0.116 | 0.226 | -0.0898
MVK C101 (UniProt Q03426) |  |  | 0.0436 | -0.0354
N4BP2 C1096 (UniProt Q86UW6) | -0.191 | 0.273 | 0.352 | 0.142
MRTFA C326 (UniProt Q969V6) |  |  | 0.0987 | 0.218
MTCL1 C1336 (UniProt Q9Y4B5) | 0.448 | -0.00173 | 0.501 | -0.116
NAA35 C230 (UniProt Q5VZE5) |  |  | -0.426 | -0.0512
MT-ND3 C39 (UniProt Q8IVS2) |  |  | 0.359 | -0.205
MSH6 C579 (UniProt P52701) | 0.197 | -0.0249 | -0.151 | -0.166
MYO18A C811 (UniProt Q92614) |  |  | -0.594 | -0.0238
NAPB C42 (UniProt Q9H115) |  |  | 0.0671 | 0.291

Target | log2 mean competition ratio ([1]; 50 µM) | log2 mean competition ratio ([1]; 200 µM) | log2 mean competition ratio ([2]; 50 µM) | log2 mean competition ratio ([2]; 200 µM)
MTA2 C209 (UniProt O94776) | -0.106 | 0.115 | 0.0641 | 0.00164
MTHFSD C47 (UniProt Q2M296) | 0.4 | 0.391 | 0.349 | 0.0906
MSH6 C765 (UniProt P52701) |  |  | -0.0929 | 0.113
MTHFSD C215 (UniProt Q2M296) | 0.422 | 0.0206 | -0.276 | 0.219
NAA15 C309 |  |  | 0.131 | -0.0921
NARF C252 (UniProt Q9UHQ1) | -0.43 | 0.133 | -0.48 | -0.0953
MTOR C674 (UniProt P42345) |  |  | -0.245 | -0.0919
MYO5A C535 (UniProt Q9Y4I1) | -0.143 | -0.262 | 0.281 | -0.19
MTHFSD C113 (UniProt Q2M296) |  |  | 0.0253 | 0.0754
MYBBP1A C338 (UniProt Q9BQG0) |  |  | 0.363 | -0.213
NAA25 C339 (UniProt Q14CX7) |  |  | -0.0339 | -0.134
MTG2 C206 (UniProt Q9H4K7) |  |  | -0.269 | -0.345
MYSM1 C773 (UniProt Q5VVJ2) |  |  | 0.211 | 0.479
MYO1B C1123 (UniProt O43795) |  |  | 0.271 | 0.119
MVB12A C33 (UniProt Q96EY5) |  |  | 0.14 | -0.0499
MTMR4 C698 (UniProt Q9NYA4) |  |  | -0.129 | 0.0365
MYO9A C1541 (UniProt B2RTY4) |  |  | 0.391 | 0.145
MYO1E C447 (UniProt Q12965) |  |  | -0.638 | 0.278
MYBL2 C7 (UniProt P10244) |  |  | 0.282 | 0.0474
NACC1 C178 (UniProt Q96RE7) |  |  | -0.112 | -0.265
MTR C378 (UniProt Q99707) |  |  | -0.00332 | 0.0348
MRPS5 C324 (UniProt P82675) |  |  | 0.547 | 0.045
NAPA C42 (UniProt P54920) |  |  | -0.338 | -0.0123
MRPS7 C152 (UniProt Q9Y2R9) |  |  | -0.0186 | -0.0147
MRPL27 C88 (UniProt Q9P0M9) |  |  | -0.187 | -0.0113
